Percent effect of library compounds

Amino acid sequences for entries named in this document (tags omitted).
UniProt P9WPC5, whole entry: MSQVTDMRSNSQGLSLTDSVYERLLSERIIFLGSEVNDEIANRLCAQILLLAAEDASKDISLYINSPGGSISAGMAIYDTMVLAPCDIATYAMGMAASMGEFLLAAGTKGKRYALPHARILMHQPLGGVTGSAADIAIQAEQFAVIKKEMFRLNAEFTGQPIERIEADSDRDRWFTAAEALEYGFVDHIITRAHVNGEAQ
UniProt P9WPC3, whole entry partner: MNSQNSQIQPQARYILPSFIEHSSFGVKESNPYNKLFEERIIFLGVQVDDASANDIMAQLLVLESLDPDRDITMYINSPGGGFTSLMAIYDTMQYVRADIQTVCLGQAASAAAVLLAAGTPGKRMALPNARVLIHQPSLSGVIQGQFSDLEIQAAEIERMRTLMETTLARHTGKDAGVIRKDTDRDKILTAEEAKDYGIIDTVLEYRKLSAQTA
UniProt I6X8D2, whole entry: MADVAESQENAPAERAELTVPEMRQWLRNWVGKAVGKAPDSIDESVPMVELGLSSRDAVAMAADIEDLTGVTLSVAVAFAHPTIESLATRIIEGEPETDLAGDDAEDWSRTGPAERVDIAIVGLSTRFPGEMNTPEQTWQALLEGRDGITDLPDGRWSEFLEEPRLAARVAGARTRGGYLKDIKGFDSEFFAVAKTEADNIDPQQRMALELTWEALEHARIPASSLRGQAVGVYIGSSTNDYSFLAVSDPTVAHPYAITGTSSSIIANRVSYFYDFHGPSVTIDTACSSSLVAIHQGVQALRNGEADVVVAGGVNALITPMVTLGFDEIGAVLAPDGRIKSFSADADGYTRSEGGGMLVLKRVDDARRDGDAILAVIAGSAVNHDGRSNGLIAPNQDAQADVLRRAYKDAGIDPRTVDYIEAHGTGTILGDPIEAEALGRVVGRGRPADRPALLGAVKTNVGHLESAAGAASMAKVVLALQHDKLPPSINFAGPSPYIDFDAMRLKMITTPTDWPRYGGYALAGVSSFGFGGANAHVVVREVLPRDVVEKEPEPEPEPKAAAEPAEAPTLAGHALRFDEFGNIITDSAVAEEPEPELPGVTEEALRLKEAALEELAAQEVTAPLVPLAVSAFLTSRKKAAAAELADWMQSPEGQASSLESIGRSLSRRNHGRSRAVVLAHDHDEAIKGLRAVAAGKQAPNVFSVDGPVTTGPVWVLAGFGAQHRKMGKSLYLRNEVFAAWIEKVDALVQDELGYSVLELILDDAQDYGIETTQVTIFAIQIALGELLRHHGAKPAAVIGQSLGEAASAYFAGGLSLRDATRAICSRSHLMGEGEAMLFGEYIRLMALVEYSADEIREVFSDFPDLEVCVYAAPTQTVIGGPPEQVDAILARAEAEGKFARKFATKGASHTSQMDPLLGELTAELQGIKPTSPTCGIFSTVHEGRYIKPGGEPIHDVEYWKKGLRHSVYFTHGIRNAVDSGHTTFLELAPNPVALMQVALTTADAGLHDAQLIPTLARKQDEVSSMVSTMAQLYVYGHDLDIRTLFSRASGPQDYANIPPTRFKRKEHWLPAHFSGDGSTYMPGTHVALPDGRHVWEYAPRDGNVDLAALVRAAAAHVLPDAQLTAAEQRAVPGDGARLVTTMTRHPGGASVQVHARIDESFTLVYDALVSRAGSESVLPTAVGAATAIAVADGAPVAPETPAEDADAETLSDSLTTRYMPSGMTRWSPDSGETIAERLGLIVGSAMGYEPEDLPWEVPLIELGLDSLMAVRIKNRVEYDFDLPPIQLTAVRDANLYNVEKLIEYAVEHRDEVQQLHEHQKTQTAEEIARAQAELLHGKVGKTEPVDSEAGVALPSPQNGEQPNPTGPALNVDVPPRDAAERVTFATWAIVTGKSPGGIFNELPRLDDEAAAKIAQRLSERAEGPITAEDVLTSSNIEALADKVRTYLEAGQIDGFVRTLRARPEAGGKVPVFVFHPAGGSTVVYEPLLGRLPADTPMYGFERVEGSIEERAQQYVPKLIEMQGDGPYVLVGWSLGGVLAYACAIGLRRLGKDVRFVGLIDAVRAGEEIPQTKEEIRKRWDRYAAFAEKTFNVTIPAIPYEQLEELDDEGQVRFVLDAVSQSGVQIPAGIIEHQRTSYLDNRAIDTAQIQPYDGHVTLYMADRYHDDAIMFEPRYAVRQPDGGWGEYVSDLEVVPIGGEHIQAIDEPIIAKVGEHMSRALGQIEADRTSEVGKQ

Data taken from ChEMBL document CHEMBL3988442, “University of Dundee, Small-Polar-MMV Screening Library” (2021).

ClpP1P2: 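ClpP1P2, Mycobacterium tuberculosis (UniProt P9WPC5 and UniProt P9WPC3). Protease assay of ClpP1P2, read by the AMC dye that it sets free. Tested at 50 µM. Direction is inferred from only a few compounds that gave an IC50; most scored high, so higher reads as stronger inhibition. Most other retested compounds had strongly negative values. About 69,000 compounds were tested under these conditions; 0.015% (about 10) showed 50% or more at least once.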
Pks13 thioesterase: 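Enzyme assay of the thioesterase domain of polyketide synthase 13; the read-out is not stated. Target: Polyketide synthase Pks13, Mycobacterium tuberculosis (UniProt I6X8D2). Compounds at 30 µM. Higher reads as stronger inhibition (inferred from which compounds were picked for retests). About 67,000 compounds were tested under these conditions; 0.46% (about 300) showed 50% or more at least once.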

Results are given as percent effect. The record does not define 0% and 100%; most values in the screen are far below 50% and negative numbers occur (in some assays of this library far below -100). The compounds are a random part of those screened. A dash means the value is not listed here; it may have been measured.

SMILES,ClpP1P2,Pks13 thioesterase
Cn1cc(NC(=O)c2cccc(-n3cnnn3)c2)cn1,12.88,0.565
CN(CCc1ccccc1)c1cnn(CC(=O)N2CCOCC2)c(=O)c1,2.827,-32.24
N#Cc1ccc(CNc2cnn(CCN3CCOCC3)c2)cc1,5.428,7.722
Cc1ccc(-n2nnc(CC(=O)N3CCSCC3)c2C)cc1,-6.165,-11.4
COCC(=O)N(Cc1cccnc1)CC1CCCN(C2CCCCC2)C1 (configuration not stated),-10.2,-18.16
Cc1cccc(-c2noc([C@@H]3C[C@@H](O)CN3CC3CCCCC3)n2)c1,-4.602,8.883
COC(=O)CC(c1ccc(OC)c(OC)c1)c1oc(C)cc(=O)c1O (configuration not stated),-4.434,-1.023
CNC(=O)[C@H]1C[C@@H]2CN(S(=O)(=O)c3ccc(F)cc3)C[C@@H]2N1C,11.54,-3.665
COc1ccc(C(=O)NCc2ccon2)cc1F,-20.22,-8.059
COc1cccc(-c2cc(NCc3nc(C)cs3)n(C)n2)c1,-1.7,-40.08
O=C(CC1=CCCCC1)NCc1ccnc(OC2CCOCC2)c1,-2.188,2.984
Cc1nc2ccccc2c(=O)n1CCC(=O)N1CCCC1,-19.18,-13.65
CN1CCC(C(=O)N2CCC(=Cc3cccc(F)c3)CC2)CC1=O (configuration not stated),-21.93,-26.6
Cc1ccc(C)c(S(=O)(=O)CCN2CCCC2Cn2cccn2)c1 (configuration not stated),-13.07,-14.72
CCC1CN(C(=O)c2ccc(=O)[nH]c2)CCC(=O)N1Cc1ccccc1 (configuration not stated),4.928,-0.0735
CCCC(=O)Nc1cc(C(=O)NC(C)Cc2ccncc2)ccc1C (configuration not stated),-5.55,-6.602
Cc1ccc(OC2(C(=O)O)CCN(C(=O)CCc3ccco3)CC2)cc1,-12.74,0.5052
N#Cc1ccc(N2CCC(OCCc3ccccc3)CC2)nc1,-7.108,33.06
Cc1nc(N2CCC(C(O)c3nccn3C)CC2)c2c(C)noc2n1 (configuration not stated),-2.976,-15.97
CS(=O)(=O)N1CCC(Cc2cnc(Br)cn2)CC1,1.84,4.592
c1ccc(CCN2CCCC(c3ccnc4nccn34)C2)cc1 (configuration not stated),-32.79,3.653
Cc1c(C(=O)N2CCC3(CCC(=O)N(CCN(C)C)C3)CC2)ccn1C,4.883,-25.62
CCN(CC1CCOC1)C(=O)CCc1nc(C(C)(C)C)no1 (configuration not stated),0.4158,-7.896
COc1ccc(N2Cc3nc(=O)n(C(C)C)n3C2=O)cc1,-6.004,-36.93
c1ccc(O[C@@H]2CC[C@H]3[C@H]2OCCN3Cc2ccsc2)nc1,-7.312,0.343
Cc1noc(C(C)N(C)Cc2ccco2)n1 (configuration not stated),-6.317,-14.4
CN(CCC(C)(C)O)C(=O)C1CCC(=O)N(Cc2ccc(Cl)cc2)C1 (configuration not stated),4.161,-8.609
Cc1ccc(Oc2c(F)cccc2OC[C@@H](N)CC(C)C)cc1,-27.83,9.319
COCCNCc1cc2ccc(C)c(C)c2[nH]c1=O,-18.61,13.08
Cc1nc(C2CN(C)CCO2)cc(N2CCC(C(N)=O)CC2)n1 (configuration not stated),-7.987,-9.028
c1snnc1CN1C[C@H]2CCC[C@@H](CN3CCOCC3)[C@H]2C1,-3.757,-26.77
Cc1cc(N(C)C)nc(C2(C)CCCN2C(=O)c2ccn(C)n2)n1 (configuration not stated),-5.819,-13.06
Nc1cc(-c2cccc3c2CCNC3)ncn1,-5,-29.47
CN(C)c1cc(C(=O)NCC2(c3cccc(F)c3)CCOCC2)ccn1,5.522,-19.19
O=C(O)c1cccc(CC2CCN(c3cnccn3)CC2)c1,-12.2,15.5
CCN(Cc1ccncc1)C(=O)c1cn(CCC2CCCCC2)nn1,10.41,3.458
C=C(C)CN1CCN(Cc2cnc(OC)nc2)CC1,1.821,-28.96
O=C(NN1CCCc2ccccc21)c1c[nH]c(=O)[nH]1,-2.259,-3.1
COc1ccc(CCN2CCc3c(nc(C4CC4)n3C)C2)cc1,22.92,-14.59
CN(C)Cc1ccccc1NC(=O)c1ccc(C#N)cc1,4.567,-39.2
COCCc1nc(CN2CC(C)(c3ccccc3)CCC2=O)no1 (configuration not stated),3.432,8.691
CC1COCCN1C(=O)c1cccc(OCc2cscn2)c1 (configuration not stated),16.62,-12.21
c1ccc(COC[C@@]23CCC[C@@H]2CN(Cc2ccccn2)C3)nc1,-1.428,-42.43
CC(=O)N1Cc2ccccc2OC2(CCN(C(=O)C3CC3)CC2)C1,-14.95,-19.52
Cc1cc(CN2CCC(O)(Cn3ccc4ncccc43)CC2)c(C)s1,-2.276,16.49
CCn1cncc1Cn1ncc2ccccc2c1=O,11.96,-39.6
Cn1cccc1C(=O)N1CC[C@H]2[C@H](CO[C@H]2CNS(C)(=O)=O)C1,5.313,-25.51
COc1cc(CNC2CCCN(c3cccnn3)C2)cc2c1OCO2 (configuration not stated),-16.09,-1.369
COc1ccc2c(c1)CCCN(C(C)C(=O)N1CCCC1)C2 (configuration not stated),-6.395,-31.01
Cc1noc(NC(=O)c2ccc(C)c(F)c2)n1,3.179,-22.24
CCNC(=O)[C@@H]1C[C@@H](NC(=O)c2cnc[nH]c2=O)CN1Cc1ccsc1,-2.002,-35.56
Cc1cnc(N2CCc3cc(C(=O)O)c(N(C)C)nc3CC2)nc1,-0.7914,-
CC(C)(C)C(NC(=O)CCCS(C)(=O)=O)c1ccc(F)cc1F (configuration not stated),-9.97,-5.051